These are yes or no findings as the source states them, for the method shown. A result given as binding can be weak or reduced; the word gives no strength. For some of these results: Binding seen in cells or lysates may run through a third protein.

Amino acid sequences for entries named in this document (tags omitted). A change or cut given only in a name is not applied to a line headed by its entry. Residues count along the entry.
UniProt P16144, residues 28-1822: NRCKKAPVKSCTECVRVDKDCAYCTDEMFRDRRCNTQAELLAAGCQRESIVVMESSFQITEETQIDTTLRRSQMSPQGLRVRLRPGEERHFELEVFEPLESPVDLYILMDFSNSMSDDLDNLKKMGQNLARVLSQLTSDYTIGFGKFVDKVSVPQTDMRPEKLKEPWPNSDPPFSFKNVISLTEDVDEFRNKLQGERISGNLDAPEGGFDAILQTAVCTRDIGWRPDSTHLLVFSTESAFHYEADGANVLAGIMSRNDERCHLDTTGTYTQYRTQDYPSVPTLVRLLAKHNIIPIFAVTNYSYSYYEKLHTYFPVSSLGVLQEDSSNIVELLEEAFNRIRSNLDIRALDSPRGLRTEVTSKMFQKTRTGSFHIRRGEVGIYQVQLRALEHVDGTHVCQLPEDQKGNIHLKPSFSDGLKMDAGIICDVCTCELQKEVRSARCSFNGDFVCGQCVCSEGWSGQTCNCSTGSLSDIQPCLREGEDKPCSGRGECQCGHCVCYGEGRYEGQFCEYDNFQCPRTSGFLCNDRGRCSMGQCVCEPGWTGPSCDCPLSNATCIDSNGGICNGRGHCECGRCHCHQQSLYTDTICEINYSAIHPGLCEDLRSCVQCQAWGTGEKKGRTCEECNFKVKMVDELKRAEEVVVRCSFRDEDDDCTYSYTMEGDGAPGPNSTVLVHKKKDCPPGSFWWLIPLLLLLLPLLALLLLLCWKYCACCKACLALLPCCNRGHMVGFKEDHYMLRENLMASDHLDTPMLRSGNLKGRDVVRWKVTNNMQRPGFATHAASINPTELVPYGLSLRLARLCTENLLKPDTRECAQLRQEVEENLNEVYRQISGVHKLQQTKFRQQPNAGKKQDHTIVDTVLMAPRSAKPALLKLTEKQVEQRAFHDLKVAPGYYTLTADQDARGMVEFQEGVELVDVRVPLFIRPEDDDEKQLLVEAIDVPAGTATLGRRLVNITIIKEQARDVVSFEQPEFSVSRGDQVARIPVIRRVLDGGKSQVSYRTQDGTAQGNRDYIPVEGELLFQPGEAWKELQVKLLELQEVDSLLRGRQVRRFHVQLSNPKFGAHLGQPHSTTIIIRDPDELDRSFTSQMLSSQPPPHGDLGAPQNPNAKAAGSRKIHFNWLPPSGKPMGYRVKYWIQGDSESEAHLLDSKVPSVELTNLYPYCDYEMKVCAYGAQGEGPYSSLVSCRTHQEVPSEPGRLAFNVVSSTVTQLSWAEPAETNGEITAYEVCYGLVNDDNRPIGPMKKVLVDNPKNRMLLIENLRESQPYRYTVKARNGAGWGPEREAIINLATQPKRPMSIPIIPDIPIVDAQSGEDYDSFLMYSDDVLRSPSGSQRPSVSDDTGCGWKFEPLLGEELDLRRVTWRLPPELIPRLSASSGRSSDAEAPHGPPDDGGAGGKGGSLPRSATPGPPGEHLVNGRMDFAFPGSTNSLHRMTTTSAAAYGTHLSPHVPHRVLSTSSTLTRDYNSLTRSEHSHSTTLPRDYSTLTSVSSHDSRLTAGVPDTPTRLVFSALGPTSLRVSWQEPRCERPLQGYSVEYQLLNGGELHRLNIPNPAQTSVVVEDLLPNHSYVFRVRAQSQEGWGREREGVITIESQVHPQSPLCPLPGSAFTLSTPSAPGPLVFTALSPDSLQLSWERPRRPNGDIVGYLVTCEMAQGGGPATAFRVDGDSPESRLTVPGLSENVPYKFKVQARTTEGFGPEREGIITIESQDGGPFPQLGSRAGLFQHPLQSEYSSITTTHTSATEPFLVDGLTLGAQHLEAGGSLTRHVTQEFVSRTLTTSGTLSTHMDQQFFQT
UniProt P34152: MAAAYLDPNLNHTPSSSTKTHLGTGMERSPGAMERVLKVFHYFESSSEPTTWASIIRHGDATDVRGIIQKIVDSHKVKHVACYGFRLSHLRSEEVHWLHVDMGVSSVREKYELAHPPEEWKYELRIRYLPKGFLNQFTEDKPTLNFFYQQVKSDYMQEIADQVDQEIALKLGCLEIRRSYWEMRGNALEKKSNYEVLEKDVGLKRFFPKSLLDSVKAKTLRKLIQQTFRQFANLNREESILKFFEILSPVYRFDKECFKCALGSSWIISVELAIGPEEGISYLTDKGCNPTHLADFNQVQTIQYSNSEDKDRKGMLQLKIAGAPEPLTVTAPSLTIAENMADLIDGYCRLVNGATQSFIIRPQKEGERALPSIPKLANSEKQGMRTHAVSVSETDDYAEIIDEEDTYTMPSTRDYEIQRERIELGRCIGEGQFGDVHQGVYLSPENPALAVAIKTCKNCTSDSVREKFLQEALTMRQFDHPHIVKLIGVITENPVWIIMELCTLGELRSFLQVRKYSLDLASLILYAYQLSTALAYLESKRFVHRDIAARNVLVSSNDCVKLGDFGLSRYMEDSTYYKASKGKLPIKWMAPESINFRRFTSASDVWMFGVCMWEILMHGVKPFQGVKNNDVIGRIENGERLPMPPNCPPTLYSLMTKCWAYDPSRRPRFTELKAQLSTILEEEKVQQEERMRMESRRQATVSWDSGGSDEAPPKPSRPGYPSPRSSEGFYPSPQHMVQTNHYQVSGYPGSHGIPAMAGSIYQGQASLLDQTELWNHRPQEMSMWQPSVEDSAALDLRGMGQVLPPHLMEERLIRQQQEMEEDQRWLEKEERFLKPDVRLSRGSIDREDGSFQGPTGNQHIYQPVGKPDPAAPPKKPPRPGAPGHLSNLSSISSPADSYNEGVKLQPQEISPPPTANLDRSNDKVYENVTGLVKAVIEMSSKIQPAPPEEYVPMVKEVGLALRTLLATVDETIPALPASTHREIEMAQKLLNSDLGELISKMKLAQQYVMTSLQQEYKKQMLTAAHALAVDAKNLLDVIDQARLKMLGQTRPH

The values that follow come from patent US20180177845A1, “METHOD FOR TREATMENT OR PREVENTION OF A CANCER” (priority 2016, published 2018).

Assay [1] deals with T1, β4 integrin (human, UniProt P16144 28-1822, limits assumed).
T1 construct: Endogenous full-length β4 integrin in lysates or immunoprecipitates; In cells it is paired with α6 integrin; also called integrin β4; ITGB4
Briefly: immunoprecipitation and Western blot (FIG. 1d). A general note: Immunoblotting shows a protein as a band on a membrane.

Assay [2] addresses T1, β4 integrin. Briefly: site-directed mutagenesis, immunoprecipitation.
In assay [3] the target is T1, β4 integrin. Briefly: co-immunoprecipitation (FIG. 3(d)).

Regarding “FAK Gln382Ala (from UniProt P34152) (enzyme)”, the binding result with β4 integrin [1] and with β4 integrin [2] was “binds” each time.
Regarding “FAK Glu380Ala (from UniProt P34152) (enzyme)”, the binding entry with β4 integrin [1] and with β4 integrin [2] was “binds” each time.
On to “FAK Lys381Ala (from UniProt P34152) (enzyme)”, for which the binding result with β4 integrin [1] and with β4 integrin [2] was “binds” in each case.
For the substance “FAK^Y397F (from UniProt P34152) (enzyme)”, in the assay with β4 integrin [3], the binding entry is recorded as “binds”.
